This series in a line: general procedure: Fmoc solid-phase peptide synthesis; rink amide MBHA resin. As to conditions: whole synthesis, analytical HPLC.

On to LLP2A-HYNIC, for which the “final HPLC purity” value was above 95%.

(Values after paper PMC3335845 (PLoS ONE, 2012).)
